# The whole screen tested about 580,000 compounds, of which about 6,100 (1.1%) were called active. The inconclusive results got no clear call from the source; some entries with a clear call stand among them for comparison. Calls come from the whole dose curve; as a rule, active = well fitted inhibition curve with a large enough effect; inconclusive = small, poorly fitted or top-dose-only effect, or another doubt; inactive = no such curve, though single readings can be large or run the other way. Potencies beside an inconclusive call are fits to weak or partial responses and may not hold up.
# Chains of the proteins cited; added tags and fusions are not shown. Lines headed by an entry give the natural chain unless they say otherwise; changes in a name come on top.
# UniProt P18054: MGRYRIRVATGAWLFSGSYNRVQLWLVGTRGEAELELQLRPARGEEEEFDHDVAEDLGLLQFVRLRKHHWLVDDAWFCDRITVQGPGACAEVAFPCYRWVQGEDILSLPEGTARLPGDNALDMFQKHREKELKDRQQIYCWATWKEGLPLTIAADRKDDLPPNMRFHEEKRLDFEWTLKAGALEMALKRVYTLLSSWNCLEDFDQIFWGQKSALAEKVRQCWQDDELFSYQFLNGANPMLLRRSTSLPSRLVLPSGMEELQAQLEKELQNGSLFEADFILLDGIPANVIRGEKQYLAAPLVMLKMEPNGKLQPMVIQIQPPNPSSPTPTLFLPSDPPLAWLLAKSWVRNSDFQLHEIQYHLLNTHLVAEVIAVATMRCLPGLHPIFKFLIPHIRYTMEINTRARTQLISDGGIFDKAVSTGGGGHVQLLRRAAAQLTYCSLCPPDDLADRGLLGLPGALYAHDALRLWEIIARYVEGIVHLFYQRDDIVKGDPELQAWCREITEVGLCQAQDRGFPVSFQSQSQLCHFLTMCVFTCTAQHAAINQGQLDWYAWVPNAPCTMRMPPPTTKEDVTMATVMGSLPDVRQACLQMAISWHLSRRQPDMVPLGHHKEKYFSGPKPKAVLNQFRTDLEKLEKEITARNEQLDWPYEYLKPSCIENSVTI
# Molecular target: Polyunsaturated fatty acid lipoxygenase ALOX12 (Homo sapiens) (UniProt P18054)
# Test: Primary qHTS assay for inhibitors of human arachidonate 12S-lipoxygenase (ALOX12): Round 2
# Conditions: purified 12hLO, xylenol orange hydroperoxide absorbance; series mostly up to 108 µM
# Method in brief: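 Purified human 12hLO (150 nM final) in 25 mM Hepes, 0.01% Triton X-100, pH 7.0 was preincubated 15 min at room temperature with compound. Then 40 uM arachidonic acid was added, 30 min. Hydroperoxide was read by Fe-XO absorbance ratio 573/405 nm.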
# Potency is the fitted concentration of half-maximal effect.
row,SMILES,Potency
1,CCCNc1c(NC(=O)COc2ccc(Cl)cc2)c(=O)oc2ccccc12,"inconclusive: 112 µM [inhibitor, single point]"
2,Clc1ccc(-c2ccc(C=Nc3ccc(N4CCOCC4)cc3)o2)cc1,"inconclusive: 44.7 µM [inhibitor, partial curve, poor fit]"
3,CC(Cc1nc2ccccc2s1)(C(=O)O)c1ccccc1 (stereo not drawn),"inconclusive: 50.1 µM [inhibitor, partial curve, poor fit]"
4,O=[N+]([O-])c1c(Nc2ccccc2Cl)cc(Cl)c2nonc12,"inconclusive: 12.6 µM [inhibitor, full curve]"
5,Cc1sc(NC(=O)C2CC(Cl)=CCC2C(=O)O)c(C#N)c1C (stereo not drawn),"inconclusive: 35.5 µM [inhibitor, partial curve, poor fit]"
6,O=C(COC(=O)c1cncc(Br)c1)NCc1ccco1,"inconclusive: 39.8 µM [inhibitor, partial curve]"
7,COc1ccc(CC(N)c2csc(Nc3cc(NCc4ccco4)ncn3)n2)cc1 (stereo not drawn),"inconclusive: 44.7 µM [inhibitor, partial curve, poor fit]"
8,COc1ccc(OC)c(C(=O)CC2(O)C(=O)N(Cc3ccccc3C)c3ccccc32)c1 (stereo not drawn),inactive
9,Nc1nc2ncccn2c1-c1ccc(F)cc1,inactive
10,Cc1cnc(C(=O)Oc2ccc(C#N)cc2)cn1,"inconclusive: 5.01 µM [inhibitor, full curve, poor fit]"
11,COc1cc(C(=O)C(=O)c2ccc(OC)c(OC)c2)ccc1O,"inconclusive: 100 µM [inhibitor, single point]"
12,Cc1ccc(C(=O)OCC(=O)NCCNC(=O)COC(=O)c2ccc(C)o2)o1,"inconclusive: 63.1 µM [inhibitor, partial curve, poor fit]"
13,COc1cccc(C(=O)C(=O)NC(C)(C)C)c1,inactive
14,Cc1ccc(S(=O)(=O)C2(C(=O)Nc3ccc(Cl)c(C(F)(F)F)c3)CC2)cc1,"inconclusive: 56.2 µM [inhibitor, full curve, poor fit]"
15,CCCCN(Cc1ccccc1)c1ccc(NS(=O)(=O)c2cc(C)c(C)cc2C)cc1C(=O)O,"inconclusive: 7.08 µM [inhibitor, full curve, poor fit]"
16,CC1Oc2ccc(NC(=O)c3c(F)cccc3F)cc2CN(Cc2ccc(Cl)cc2)C1=O (stereo not drawn),inactive
17,Cn1c(Sc2nc3ccccc3n2C)nc2ccccc21,"inconclusive: 31.6 µM [inhibitor, partial curve, poor fit]"
18,CC(C)c1ccc(NC(=O)Cn2c(=O)n(CC3CCC(C(=O)NCCc4ccccc4)CC3)c(=O)c3ccccc32)cc1 (stereo not drawn),inactive
19,COc1ccc(C(=O)Oc2cccc(C)c2C)cc1Br,inactive
20,CCNCc1ccc(-c2ccc(C(F)(F)F)cc2)o1,"inconclusive: 44.7 µM [inhibitor, partial curve, poor fit]"
21,Cc1ccc(-n2c(=O)c3cccnc3n2CC(=O)Nc2cc(C)cc(C)c2)cc1,"inconclusive: 112 µM [inhibitor, partial curve, poor fit]"
22,CC(C)(C)NC(=O)COc1ccc2oc3c(c2c1)CCCC3,inactive
23,CCOC(=O)c1c(-c2ccc(C)o2)csc1NC(=O)CN1CCCCC1,inactive

row,SMILES,Potency
1,O=C(NCc1ccco1)C1CCCN(S(=O)(=O)c2cccc3nsnc23)C1 (stereo not drawn),"inconclusive: 89.1 µM [inhibitor, partial curve, poor fit]"
2,Clc1ccccc1-c1nnc2sc(-c3ccc4c(c3)OCO4)nn12,"inconclusive: 1.26 µM [inhibitor, full curve, poor fit]"
3,Fc1ccc(OCc2nc(CSc3ncc(-c4ccc(F)cc4)o3)cs2)cc1,"inconclusive: 39.8 µM [inhibitor, partial curve, poor fit]"
4,COc1ccc(-n2ccnc2SCC(=O)Nc2ccc3c(c2)OCO3)cc1,"inconclusive: 112 µM [inhibitor, partial curve, poor fit]"
5,Cc1ccc(C(C(=O)NCc2ccco2)N(CC2CCCO2)C(=O)Cn2nnc3ccccc32)cc1 (stereo not drawn),"inconclusive: 0.199 µM [inhibitor, full curve, poor fit]"
6,Cc1cccc(N2CCN(C(=O)CCn3c(=S)[nH]c4cc5c(cc4c3=O)OCO5)CC2C)c1 (stereo not drawn),inactive
7,CC(C)(C)C1CCc2c(sc(NC(=O)Cn3nnc(-c4ccccc4Cl)n3)c2C#N)C1 (stereo not drawn),"inconclusive: 100 µM [inhibitor, partial curve, poor fit]"
8,COc1ccc(-c2cc(NC(C)=O)c3ncc(-c4ccccc4)n3c2)cc1OC,"inconclusive: 89.1 µM [inhibitor, partial curve, poor fit]"
9,CCc1nc(NCCCn2ccnc2)c2oc3ccccc3c2n1,"inconclusive: 35.5 µM [inhibitor, partial curve, poor fit]"
10,O=C1c2ccccc2CCC1C(O)c1ccccn1 (stereo not drawn),"inconclusive: 28.2 µM [inhibitor, single point]"
11,Fc1ccc(CCNC(=S)Nc2ccc(Nc3ccccc3)cc2)cc1,"inconclusive: 44.7 µM [inhibitor, partial curve, poor fit]"
12,CSc1nc2nccc(/C=C\c3ccccc3)n2n1,inactive
13,O=C(CCCCl)NC(=S)Nc1cc(C(F)(F)F)ccc1N1CCOCC1,"inconclusive: 44.7 µM [inhibitor, partial curve, poor fit]"
14,N#C/C(C(=O)N1CCCCC1)=C1\Nc2ccccc2S1,inactive
15,Cc1ccc(CNc2ccc(-c3nc(-c4ccncc4)no3)cc2[N+](=O)[O-])cc1,inactive
16,COc1ccccc1-n1cnnc1SCC(=O)NC1CCCCC1,inactive
17,CN(C)/C=C(\C#N)C(=O)c1cccc(Oc2ccc(Br)cc2)c1,"inconclusive: 79.4 µM [inhibitor, partial curve, poor fit]"
18,CCCCOc1ccc(C(=O)N/C(=C/C=C/c2ccccc2)C(=O)O)cc1,"inconclusive: 35.5 µM [inhibitor, single point]"
19,Cc1csc(NC(=O)c2ccc[nH]c2=O)n1,"inconclusive: 126 µM [inhibitor, single point]"
20,O=C(O)C1=NN(c2ccccc2)C(=O)C1,"inconclusive: 0.794 µM [inhibitor, full curve]"
21,O=C(O)C(Cc1ccccc1)N1C(=O)c2c(Cl)c(Cl)c(Cl)c(Cl)c2C1=O (stereo not drawn),"inconclusive: 11.2 µM [inhibitor, full curve, poor fit]"
22,COc1ccc(NC(=O)NN2CCN(C)CC2)cc1OC,"inconclusive: 89.1 µM [inhibitor, partial curve, poor fit]"
23,COc1ccc(NS(=O)(=O)c2ccc(S(=O)(=O)N3CCOCC3)cc2)cc1,inactive

row,SMILES,Potency
1,COc1cccc(C(=O)N2CCC(C(=O)Nc3cccc(Cl)c3)CC2)c1,inactive
2,CCCOc1ccc(C(=O)N2CCCC2C(=O)O)cc1 (stereo not drawn),"inconclusive: 100 µM [inhibitor, partial curve, poor fit]"
3,O=C(/C=C/c1ccc(Cl)cc1)Nc1ccc(N2CCOCC2)cc1,inactive
4,O=C(COCc1cc(-c2cccs2)on1)N1CCN(c2ccccc2)CC1,"inconclusive: 141 µM [inhibitor, partial curve, poor fit]"
5,O=C(NC1=NCCS1)c1ccccc1OCc1ccc(F)cc1,"inconclusive: 25.1 µM [inhibitor, partial curve, poor fit]"
6,COc1ccc(S(=O)(=O)N2CCC3CC2c2cc(-c4ccc5c(c4)OCO5)ccc23)cc1 (stereo not drawn),"inconclusive: 44.7 µM [inhibitor, partial curve, poor fit]"
7,COc1ccccc1C(=O)Nc1ccc2nc(SCCOc3ccccc3C)sc2c1,inactive
8,O=C(NNC(=O)c1ccc(NC(=O)c2ccccc2)cc1)c1ccc(F)cc1,inactive
9,COc1ccc(CNC(=O)C2CCN(S(=O)(=O)c3cccc4nsnc34)CC2)cc1,inactive
10,Cc1ccc(-c2nc(S(=O)(=O)c3ccc(F)cc3)c(SCC(=O)NCC3CCCO3)o2)cc1 (stereo not drawn),inactive
11,c1ccc(CCCN2CCOCC2)cc1,"inconclusive: 3.16 µM [inhibitor, full curve, poor fit]"
12,CC(C)c1ccc(N2C(=O)CSC23C(=O)N(Cc2cccc(F)c2)c2ccccc23)cc1 (stereo not drawn),inactive
13,N=c1n(CC(=O)c2ccc([N+](=O)[O-])cc2)c2ccccc2n1Cc1ccccc1Cl,"inconclusive: 50.1 µM [inhibitor, partial curve]"
14,CCC(=O)Nc1nnc(Cc2c[nH]c3ccccc23)s1,inactive
15,S=C(NCCc1ccccn1)NC1CC2CCC1C2 (stereo not drawn),"inconclusive: 0.355 µM [inhibitor, full curve, poor fit]"
16,CC(=O)Nc1cccc(NC(=O)CSc2ccc(-c3ccco3)nn2)c1,"inconclusive: 39.8 µM [inhibitor, partial curve, poor fit]"
17,O=C(N/N=C/c1ccccn1)c1cc[n+]([O-])cc1,inactive
18,Cn1ncc(Br)c1C(=O)N1CCCCCC1,"inconclusive: 56.2 µM [inhibitor, partial curve, poor fit]"
19,COc1ccc(-c2cc(=O)c3c(C)cc(O)cc3o2)cc1,"inconclusive: 50.1 µM [inhibitor, partial curve, poor fit]"
20,C=CCOc1ccc(/C=N\NC(N)=S)cc1,"inconclusive: 44.7 µM [inhibitor, partial curve, poor fit]"
21,O=C(CC1CCN(C(=O)Nc2cccc(F)c2)C1)NC1CC1 (stereo not drawn),"inconclusive: 28.2 µM [inhibitor, full curve]"
22,N#C/C(=C\c1ccc(O)c(O)c1)C(=O)NCCCCc1ccccc1,"inconclusive: 0.891 µM [inhibitor, full curve, poor fit]"

# 5 entries drawn at random from those above:
row,SMILES,Potency
10,Cc1cnc(C(=O)Oc2ccc(C#N)cc2)cn1,"inconclusive: 5.01 µM [inhibitor, full curve, poor fit]"
21,Cc1ccc(-n2c(=O)c3cccnc3n2CC(=O)Nc2cc(C)cc(C)c2)cc1,"inconclusive: 112 µM [inhibitor, partial curve, poor fit]"
20,O=C(O)C1=NN(c2ccccc2)C(=O)C1,"inconclusive: 0.794 µM [inhibitor, full curve]"
15,S=C(NCCc1ccccn1)NC1CC2CCC1C2 (stereo not drawn),"inconclusive: 0.355 µM [inhibitor, full curve, poor fit]"
21,O=C(O)C(Cc1ccccc1)N1C(=O)c2c(Cl)c(Cl)c(Cl)c(Cl)c2C1=O (stereo not drawn),"inconclusive: 11.2 µM [inhibitor, full curve, poor fit]"

# Source: PubChem BioAssay AID1671190 (National Center for Advancing Translational Sciences (NCATS), 2021)
